Measurements published in publication PMC10523983.
Results are given in words; binding and its absence hold for the method and conditions named. Binding seen in cells or lysates may run through a third protein. Some results given as binding are weak or reduced against the parent protein; the word gives no strength.

Chains of the proteins cited; added tags and fusions are not shown. Lines headed by an entry give the natural chain unless they say otherwise; changes in a name come on top.
UniProt Q16763: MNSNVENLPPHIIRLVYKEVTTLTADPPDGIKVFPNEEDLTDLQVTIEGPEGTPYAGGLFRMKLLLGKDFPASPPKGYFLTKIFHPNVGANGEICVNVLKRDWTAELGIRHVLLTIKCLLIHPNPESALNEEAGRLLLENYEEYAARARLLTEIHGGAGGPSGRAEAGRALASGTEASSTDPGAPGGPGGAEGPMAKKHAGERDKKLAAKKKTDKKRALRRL
UniProt P40337: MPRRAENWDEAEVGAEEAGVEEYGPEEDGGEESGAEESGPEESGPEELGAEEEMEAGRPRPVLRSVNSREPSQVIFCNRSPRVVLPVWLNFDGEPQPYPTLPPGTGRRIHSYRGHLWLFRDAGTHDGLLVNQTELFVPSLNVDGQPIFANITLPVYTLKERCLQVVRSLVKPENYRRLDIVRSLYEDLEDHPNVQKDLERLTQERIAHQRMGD

Tests used:
[1] = target: Ubiquitin-conjugating enzyme E2S (UBE2S) (human) (UniProt Q16763); assay: co-IP; HCCLM3 cells transfected with the UBE2S plasmid, 12 h with 10 mM MG132; NP40 lysate immunoprecipitated with anti-UBE2S antibodies (4°C overnight, protein A + G Sepharose beads), western blot for VHL
[2] = target: von Hippel-Lindau (VHL) protein (human (endogenous in HCCLM3 and Bel-7402)) (UniProt P40337); assay: co-IP; Bel-7402 cells, in the presence of 10 mM MG132; NP40 lysate immunoprecipitated with anti-VHL antibodies (4°C overnight, protein A + G Sepharose beads), western blot for UBE2S

Substance | binding [1] | binding [2]
von Hippel-Lindau (VHL) protein (from UniProt P40337 1-213) | binds | 
Ubiquitin-conjugating enzyme E2S (UBE2S) (from UniProt Q16763 1-222) |  | binds
